Measurements published in paper PMC5537347, “A short D-enantiomeric antimicrobial peptide with potent immunomodulatory and antibiofilm activity against multidrug-resistant Pseudomonas aeruginosa and Acinetobacter baumannii” (Scientific Reports, 2017).
Peptide text beside a SMILES is read from it.

Assay: Circular dichroism spectroscopy, helical content
Assay type: physicochemical

SMILES	helical content (in SDS, mean residue ellipticity at 222 nm) [%]	helical content (in TFE, mean residue ellipticity at 222 nm) [%]	helical content (with the addition of SDS and TFE)
CC[C@H](C)[C@H](NC(=O)[C@H](CCCNC(=N)N)NC(=O)[C@H](CCCNC(=N)N)NC(=O)[C@H](CC(C)C)NC(=O)[C@@H](N)Cc1c[nH]c2ccccc12)C(=O)N[C@@H](CCCCN)C(=O)N[C@@H](C)C(=O)N[C@@H](Cc1c[nH]c2ccccc12)C(=O)N[C@@H](CC(C)C)C(=O)N[C@@H](CCCNC(=N)N)C(=O)N[C@@H](CCCNC(=N)N)C(=O)O [RR] (H-WLRRIKAWLRR-OH; N-terminus and C-terminus assumed)	12	20	
CC[C@H](C)[C@H](NC(=O)[C@H](CCCNC(=N)N)NC(=O)[C@H](CCCNC(=N)N)NC(=O)[C@H](CC(C)C)NC(=O)[C@H](Cc1c[nH]c2ccccc12)NC(=O)[C@H](C)NC(=O)[C@H](CCCCN)NC(=O)[C@@H](NC(=O)[C@H](CCCNC(=N)N)NC(=O)[C@H](CCCNC(=N)N)NC(=O)[C@H](CC(C)C)NC(=O)[C@@H](N)Cc1c[nH]c2ccccc12)[C@@H](C)CC)C(=O)N[C@@H](CCCCN)C(=O)N[C@@H](C)C(=O)O [RR4]			about 30%
